Results reported in patent US5821039A, “Photographic element containing neutral dye-forming resorcinol coupler” (Eastman Kodak Company, priority 1997, dated 1998).

Legend:
[1] = Dye image density at maximum exposure, color negative film format, Kodak Flexicolor (C-41) process; conditions: for Blue density at maximum exposure / Green density at maximum exposure / Red density at maximum exposure: color negative film, C-41 process, 0.27 g/m^2 of coupler
From the text: These samples were exposed imagewise through a stepped density test object and subjected to the Kodak Flexicolor (C-41) Process as described in British Journal of Photography Annual, 1988, pp. 196-198 using fresh unseasoned processing solutions.

[2] = Dye image density, color paper format, Kodak Ektacolor RA-4 process; conditions: 1.08 g/m^2 of S-1
From the text: This imaging layer was overcoated with a UV layer consisting of 1.33 g/m^2 gelatin, 0.73 g/m^2 of 2-(2H-benzotriazol-2-yl)-4,6-bis(1,1-dimethylpropyl)phenol and 0.13 g/m^2 of Tinuvin 326 (trademark of Ciba-Geigy) and finally, an overcoat of gelatin at 1.4 g/m^2 and bis(vinylsulfonyl)methane hardener at 0.14 g/m^2. This sample was given a stepped exposure and processed according to the Kodak Ektacolor RA-4 process as described in The British Journal of Photography Annual of 1988, pp 198-199.

Row | SMILES | Blue density at maximum exposure [1] | Green density at maximum exposure [1] | Red density at maximum exposure [1] | density / neutral dye formation (in words) ([1]; conventional processing, data of Table I) | Blue density [2] | Green density [2] | Red density [2]
1 | CCCCCCCCCCCCCCCCCCNC(=O)c1cc(O)c(Br)c(O)c1 [S-5] | .344 | .406 | .270 | – | – | – | –
2 | CCCCCCCCCCCCCCOc1ccccc1NC(=O)c1cccc(S(=O)(=O)Nc2c(O)cccc2O)c1 [CS-1, reference compound] | Trace | – | – | fails to provide measurable density | – | – | –
3 | CCCCCCCCCCCCCCCCCCNC(=O)c1cc(O)cc(O)c1 [S-1, 3,5-Dihydroxy-N-n-octadecylbenzamide] | .461 | .493 | .343 | – | .800 | .870 | .800
